Assay results: the supplement of paper PMC8728848
The other results are listed elsewhere or left out.

Legend:
Assay in all cases: glycan array binding signal (z-score within array); higher = stronger binding
Conditions in all cases: glycan notation: IUPAC condensed, linker removed
[1] = target: Fuc(a1-2)Gal(b1-4)GlcNAc(b1-3)Gal(b1-4)GlcNAc(b1-3)Gal(b1-4)GlcNAc
In short: (§1)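 Glycan array data were curated from 3228 arrays in the Consortium for Functional Glycomics database and kept only where the protein sequence was available. Glycan names were converted to IUPAC-condensed notation, and columns mapping to the same glycan were averaged. The binding signal is a within-array Z-score, averaged across arrays of the same protein sequence at different concentrations or buffers and across linkers. Negative Z-scores can be read as non-binding.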

[2] = target: Fuc(a1-2)Gal(b1-4)GlcNAc(b1-3)GalNAc
In short: as §1

[3] = target: Fuc(a1-2)Gal(b1-4)GlcNAc(b1-3)[Fuc(a1-2)Gal(b1-4)GlcNAc(b1-6)]GalNAc
In short: as §1

[4] = target: Fuc(a1-2)Gal(b1-4)GlcNAc(b1-3)[Fuc(a1-3)[Gal(b1-4)]GlcNAc(b1-6)]Gal(b1-4)Glc
In short: as §1

[5] = target: Fuc(a1-2)Gal(b1-4)GlcNAc(b1-6)GalNAc
In short: as §1

[6] = target: Fuc(a1-2)Gal(b1-4)GlcNAc6S
In short: as §1

[7] = target: Fuc(a1-2)Gal(b1-4)[Fuc(a1-3)]GlcNAc
In short: as §1

[8] = target: Fuc(a1-2)Gal(b1-4)[Fuc(a1-3)]GlcNAc(b1-2)Man(a1-3)[Fuc(a1-2)Gal(b1-4)[Fuc(a1-3)]GlcNAc(b1-2)Man(a1-6)]Man(b1-4)GlcNAc(b1-4)[Fuc(a1-6)]GlcNAc
In short: as §1

[9] = target: Fuc(a1-2)Gal(b1-4)[Fuc(a1-3)]GlcNAc(b1-2)[Fuc(a1-2)Gal(b1-4)[Fuc(a1-3)]GlcNAc(b1-4)]Man(a1-3)[Fuc(a1-2)Gal(b1-4)[Fuc(a1-3)]GlcNAc(b1-2)Man(a1-6)]Man(b1-4)GlcNAc(b1-4)GlcNAc
In short: as §1

[10] = target: Fuc(a1-2)Gal(b1-4)[Fuc(a1-3)]GlcNAc(b1-3)Gal(b1-4)[Fuc(a1-3)]GlcNAc
In short: as §1

[11] = target: Fuc(a1-2)Gal(b1-4)[Fuc(a1-3)]GlcNAc(b1-3)Gal(b1-4)[Fuc(a1-3)]GlcNAc(b1-3)Gal(b1-4)[Fuc(a1-3)]GlcNAc
In short: as §1

[12] = target: Fuc(a1-2)Gal(b1-4)[Fuc(a1-3)]GlcNAc(b1-3)GalNAc
In short: as §1

[13] = target: Fuc(a1-2)Gal(b1-4)[Fuc(a1-3)]GlcNAc(b1-3)[Neu5Ac(a2-6)Gal(b1-4)GlcNAc(b1-6)]Gal(b1-4)Glc
In short: as §1

[14] = target: Fuc(a1-2)Gal3S(b1-4)GlcNAc
In short: as §1

[15] = target: Fuc(a1-2)Gal6S(b1-3)GlcNAc
In short: as §1

[16] = target: Fuc(a1-2)Gal6S(b1-3)GlcNAc6S
In short: as §1

[17] = target: Fuc(a1-2)Gal6S(b1-4)Glc
In short: as §1

[18] = target: Fuc(a1-2)Gal6S(b1-4)Glc6S
In short: as §1

[19] = target: Fuc(a1-2)[Gal(a1-3)]Gal
In short: as §1

[20] = target: Fuc(a1-2)[Gal(a1-3)]Gal(b1-3)GalNAc
In short: as §1

[21] = target: Fuc(a1-2)[Gal(a1-3)]Gal(b1-3)GalNAc(b1-3)Gal(a1-4)Gal(b1-4)Glc
In short: as §1

[22] = target: Fuc(a1-2)[Gal(a1-3)]Gal(b1-3)GlcNAc
In short: as §1

[23] = target: Fuc(a1-2)[Gal(a1-3)]Gal(b1-3)GlcNAc(b1-2)Man(a1-3)[Fuc(a1-2)[Gal(a1-3)]Gal(b1-3)GlcNAc(b1-2)Man(a1-6)]Man(b1-4)GlcNAc(b1-4)GlcNAc
In short: as §1

[24] = target: Fuc(a1-2)[Gal(a1-3)]Gal(b1-3)GlcNAc(b1-2)Man(a1-3)[Fuc(a1-2)[Gal(a1-3)]Gal(b1-3)GlcNAc(b1-2)Man(a1-6)]Man(b1-4)GlcNAc(b1-4)[Fuc(a1-6)]GlcNAc
In short: as §1

[25] = target: Fuc(a1-2)[Gal(a1-3)]Gal(b1-3)GlcNAc(b1-3)GalNAc
In short: as §1

[26] = target: Fuc(a1-2)[Gal(a1-3)]Gal(b1-3)GlcNAc(b1-6)GalNAc
In short: as §1

[27] = target: Fuc(a1-2)[Gal(a1-3)]Gal(b1-4)Glc
In short: as §1

[28] = target: Fuc(a1-2)[Gal(a1-3)]Gal(b1-4)GlcNAc
In short: as §1

[29] = target: Fuc(a1-2)[Gal(a1-3)]Gal(b1-4)GlcNAc(b1-2)Man
In short: as §1

[30] = target: Fuc(a1-2)[Gal(a1-3)]Gal(b1-4)GlcNAc(b1-2)Man(a1-3)[Fuc(a1-2)[Gal(a1-3)]Gal(b1-4)GlcNAc(b1-2)Man(a1-6)]Man(b1-4)GlcNAc(b1-4)GlcNAc
In short: as §1

[31] = target: Fuc(a1-2)[Gal(a1-3)]Gal(b1-4)GlcNAc(b1-2)Man(a1-3)[Fuc(a1-2)[Gal(a1-3)]Gal(b1-4)GlcNAc(b1-2)Man(a1-6)]Man(b1-4)GlcNAc(b1-4)[Fuc(a1-6)]GlcNAc
In short: as §1

[32] = target: Fuc(a1-2)[Gal(a1-3)]Gal(b1-4)GlcNAc(b1-3)GalNAc
In short: as §1

[33] = target: Fuc(a1-2)[Gal(a1-3)]Gal(b1-4)GlcNAc(b1-3)[Fuc(a1-2)[Gal(a1-3)]Gal(b1-4)GlcNAc(b1-6)]GalNAc
In short: as §1

[34] = target: Fuc(a1-2)[Gal(a1-3)]Gal(b1-4)GlcNAc(b1-6)GalNAc
In short: as §1

[35] = target: Fuc(a1-2)[Gal(a1-3)]Gal(b1-4)[Fuc(a1-3)]Glc
In short: as §1

[36] = target: Fuc(a1-2)[Gal(a1-3)]Gal(b1-4)[Fuc(a1-3)]GlcNAc
In short: as §1

[37] = target: Fuc(a1-2)[Gal(a1-3)]Gal(b1-4)[Fuc(a1-3)]GlcNAc(b1-3)GalNAc
In short: as §1

[38] = target: Fuc(a1-2)[Gal(a1-4)]Gal(b1-4)GlcNAc
In short: as §1

[39] = target: Fuc(a1-2)[GalNAc(a1-3)]Gal
In short: as §1

[40] = target: Fuc(a1-2)[GalNAc(a1-3)]Gal(b1-3)GalNAc(a1-3)[Fuc(a1-2)]Gal(b1-4)GlcNAc
In short: as §1

[41] = target: Fuc(a1-2)[GalNAc(a1-3)]Gal(b1-3)GalNAc(b1-3)Gal(a1-4)Gal(b1-4)Glc
In short: as §1

[42] = target: Fuc(a1-2)[GalNAc(a1-3)]Gal(b1-3)GlcNAc
In short: as §1

[43] = target: Fuc(a1-2)[GalNAc(a1-3)]Gal(b1-3)GlcNAc(b1-2)Man(a1-3)[Fuc(a1-2)[GalNAc(a1-3)]Gal(b1-3)GlcNAc(b1-2)Man(a1-6)]Man(b1-4)GlcNAc(b1-4)GlcNAc
In short: as §1

[44] = target: Fuc(a1-2)[GalNAc(a1-3)]Gal(b1-3)GlcNAc(b1-2)Man(a1-3)[Fuc(a1-2)[GalNAc(a1-3)]Gal(b1-3)GlcNAc(b1-2)Man(a1-6)]Man(b1-4)GlcNAc(b1-4)[Fuc(a1-6)]GlcNAc
In short: as §1

[45] = target: Fuc(a1-2)[GalNAc(a1-3)]Gal(b1-3)GlcNAc(b1-3)GalNAc
In short: as §1

B1: PX14343I-pdi-501-30-501 (Parabacteroides distasonis) (protein)
chain: SDQYSTETFWKTKEHASAGIMGCYNALKLWRSLHTMEFDMLTANAMPYNEANGTQAIGKGEHLSTTALIGSLWKNCYVGIGRTNTFIANVGGVDMDESEKAKMVGEAKFLRAFYYLSLVDKFGGVPLIIDAPNADEQAELPRNSKEEVVNQIVKDLEEAAAVLPDTYASSDLGRATKGAALALKARTLLYNSRWAEAAQAAKQVMESGVYQLFNDYRHFFSEDNKYNCEVIFDIEAKLPEYPTDYDQNIWRLNRPAPLKELVDTYLCVDGKTIEESPLYDPTRPYENRDPRLLKSIVCIGYPYLGKTITKEDVATTGFGVKKYTSYEDDVTIPLVERSAFNFILIRYAEVLLTYAEAQNEASGPDQSVYDAINQLRRRPDINMPEVPKGLTKDQMREVIRRERRIELTFEGLYYSDILRWKTAEKENNGMMHNYEGIEVVKRSFNPKRDYLWPIPYNQTVLNPNLEQNPNWD
B1 was tested, and the “glycan array binding signal (z-score)” value [1] was -0.429, the “glycan array binding signal (z-score)” value [2] was 0.082 and the “glycan array binding signal (z-score)” value [3] was 0.509. The “glycan array binding signal (z-score)” value [4] was -0.159, the “glycan array binding signal (z-score)” value [5] was -1.54 and the “glycan array binding signal (z-score)” value [6] was -0.223. The “glycan array binding signal (z-score)” value [7] was -0.321, the “glycan array binding signal (z-score)” value [8] was 2.6 and the “glycan array binding signal (z-score)” value [9] was -0.532. For the same binder, the “glycan array binding signal (z-score)” value [10] was -0.634, the “glycan array binding signal (z-score)” value [11] was -0.573 and the “glycan array binding signal (z-score)” value [12] was -0.465. The “glycan array binding signal (z-score)” value [13] was -0.696, the “glycan array binding signal (z-score)” value [14] was -0.677 and the “glycan array binding signal (z-score)” value [15] was 0.393. The “glycan array binding signal (z-score)” value [16] was -0.446, the “glycan array binding signal (z-score)” value [17] was 0.082 and the “glycan array binding signal (z-score)” value [18] was -0.391. For the same binder, the “glycan array binding signal (z-score)” value [19] was -0.376, the “glycan array binding signal (z-score)” value [20] was 0.267 and the “glycan array binding signal (z-score)” value [21] was 0.578. For the same binder, the “glycan array binding signal (z-score)” value [22] was -0.077, the “glycan array binding signal (z-score)” value [23] was 0.697 and the “glycan array binding signal (z-score)” value [24] was -0.563. The “glycan array binding signal (z-score)” value [25] was 0.385, the “glycan array binding signal (z-score)” value [26] was -0.008 and the “glycan array binding signal (z-score)” value [27] was -0.16. For the same binder, the “glycan array binding signal (z-score)” value [28] was 0.188, the “glycan array binding signal (z-score)” value [29] was -0.7 and the “glycan array binding signal (z-score)” value [30] was 0.272. For the same binder, the “glycan array binding signal (z-score)” value [31] was 0.866, the “glycan array binding signal (z-score)” value [32] was 0.362 and the “glycan array binding signal (z-score)” value [33] was -0.551. The “glycan array binding signal (z-score)” value [34] was -0.088, the “glycan array binding signal (z-score)” value [35] was -0.322 and the “glycan array binding signal (z-score)” value [36] was 0.018. The “glycan array binding signal (z-score)” value [37] was -0.205, the “glycan array binding signal (z-score)” value [38] was -0.398 and the “glycan array binding signal (z-score)” value [39] was -0.237. For the same binder, the “glycan array binding signal (z-score)” value [40] was -0.036, the “glycan array binding signal (z-score)” value [41] was -0.085 and the “glycan array binding signal (z-score)” value [42] was 0.35. The “glycan array binding signal (z-score)” value [43] was -0.277, the “glycan array binding signal (z-score)” value [44] was -0.505 and the “glycan array binding signal (z-score)” value [45] was 0.161.
